The record followed here is patent EP2282358A1, “Host material for light-emitting devices” (Solvay SA, priority 2009, dated 2011).

A short description of the series: OLED preparation and performance measurement (compound as electron transporting host in the spin-coated emissive layer). The following applies: for Turn-on voltages: EML 60 % ETM, 35 % TCzl, 5 % Firpic; for EQE / V / Cd/A / Lm/W: at 1000 cd/m^2; for x / y: color index; for Cd/A: luminous efficiency; for Lm/W: power efficiency.
Setting [1] is: HTM TCzF, solution chlorobenzene.
The mark [2] stands for this setting: HTM TCzI, solution chlorobenzene.

Consider `CC(C)(C)c1ccc(-c2nnc(-c3cccc(-c4nnc(-c5ccc(C(C)(C)C)cc5)o4)c3)o2)cc1` [OXD7, reference compound], for which the Turn-on voltages (spin-coated from chlorobenzene) was determined as 3.4 V. Under setting [1], this compound yielded an EQE of 6.0%, a V of 7.5 V, a Cd/A of 13.3 Cd/A and a Lm/W of 5.6 Lm/W. Under setting [2], this compound came in with an EQE of 6.3%, a V of 7.3 V, a x of 0.17 and a y of 0.37. In addition, under setting [2], the Cd/A came out at 13.6 Cd/A and the Lm/W stood at 5.9 Lm/W.
Under “spin-coated from toluene”, `CC(C)(C)c1ccc(-c2nnc(-c3cc(-c4nnc(-c5ccc(C(C)(C)C)cc5)o4)cc(C(C)(C)C)c3)o2)cc1` [tBu-OXD7] had a Turn-on voltages of 3.6 V. Under setting [1], this compound yielded an EQE of 6.5%, a V of 7.7 V, a Cd/A of 14.0 Cd/A and a Lm/W of 5.7 Lm/W. Besides, for the setting “HTM TCzF, solution toluene”, the EQE is 7.4%, the V was 6.9 V, the Cd/A is 16.0 Cd/A and the Lm/W is listed as 7.2 Lm/W. Moreover, under “HTM TCzI, solution toluene”, the EQE is listed as 7.7%, the V was 7.4 V, the x was 0.16 and the y is recorded as 0.36. For the setting “HTM TCzI, solution toluene”, the Cd/A is listed as 16.3 Cd/A and the Lm/W was found to be 7.0 Lm/W.
